Measured values: US20230263809A1, “FOOD SUPPLEMENT FOR ALZHEIMER” (FOLIUM BIOSCIENCES EUROPE B.V., priority 2019, published 2023)
Some results were stated once for a whole list of compounds, not compound by compound.

System: Amyloid-β depositions
Assay: Diminishing of Amyloid-β depositions on uptake of phytosterols
Type: in vivo
Conditions: uptake of the phytosterol

C=CC(O)(CC[C@@H](C)[C@H]1CC[C@H]2[C@@H]3CC=C4C[C@@H](O)CC[C@]4(C)[C@H]3CC[C@]12C)C(C)C (stereo partly drawn) [24(S)-Saringosterol]
diminish the Amyloid-β depositions: up to 70%
